Results deposited as PubChem BioAssay AID1224830 (NIAID, 2016).
Shown is one part, drawn at random, of about 18,000 deposited reagents. Of all reagents, about 2,900 (16%) got an active call. 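Calls are made per well; low scores hint the gene aids the LPS response, high scores that it dampens it.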 A number with no mark means an inactive call. Repeated entries: four replicate wells of each siRNA pool.

Screen: 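Regulators of TLR4 signalling towards TNF-alpha in macrophage-like cells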 (primary screen)
System: human THP-1 monocytic leukaemia cells, TNF dual-luciferase reporter clone, PMA-differentiated to macrophage-like cells
Reagent: siRNA pool against human genes, 50 nM
Timing: LPS for 4 h, given about 3 days after siRNA transfection
Treatment: bacterial LPS (TLR4 ligand), 10 ng/ml
Detection: 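Ratio of firefly to renilla light, scaled to the plate median and expressed as a robust z-score per replicate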
Scale: TNF reporter robust z-score: higher = stronger TNF reporter response to LPS
Rule for the call: 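Each well counts as active if its z-score is over 2.8 or under -1.5; controls are left without a call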

Against RAD51AP1 (RAD51 associated protein 1), the entry reads TNF reporter robust z-score -1.38.
After knock-down of RAD51AP1 (RAD51 associated protein 1), the screen gave TNF reporter robust z-score -0.32.
After knock-down of RAD51AP1 (RAD51 associated protein 1), the screen gave TNF reporter robust z-score -0.59.
For RAD51AP1 (RAD51 associated protein 1), the entry reads TNF reporter robust z-score 0.07.
Knock-down of ZNF438 (zinc finger protein 438) resulted in: TNF reporter robust z-score -0.7.
Against ZNF438 (zinc finger protein 438), the entry reads TNF reporter robust z-score -0.71.
With knock-down of ZNF438 (zinc finger protein 438) the results were TNF reporter robust z-score -1.14.
After knock-down of ZNF438 (zinc finger protein 438), the screen gave TNF reporter robust z-score -0.42.
PTP4A2 (protein tyrosine phosphatase 4A2) scored TNF reporter robust z-score 1.53.
With knock-down of PTP4A2 (protein tyrosine phosphatase 4A2) the results were TNF reporter robust z-score 2.
PTP4A2 (protein tyrosine phosphatase 4A2) showed TNF reporter robust z-score -0.75.
With knock-down of PTP4A2 (protein tyrosine phosphatase 4A2), the record shows TNF reporter robust z-score 0.61.
With knock-down of MYB (MYB proto-oncogene, transcription factor), the record shows TNF reporter robust z-score -0.84.
Silencing of MYB (MYB proto-oncogene, transcription factor) came out at: TNF reporter robust z-score -0.28.
MYB (MYB proto-oncogene, transcription factor) showed TNF reporter robust z-score -0.53.
Against MYB (MYB proto-oncogene, transcription factor), the entry reads TNF reporter robust z-score 0.15.
With knock-down of PTPN1 (protein tyrosine phosphatase non-receptor type 1), the screen gave TNF reporter robust z-score 1.39.
For PTPN1 (protein tyrosine phosphatase non-receptor type 1), the values are TNF reporter robust z-score 0.44.
Knock-down of PTPN1 (protein tyrosine phosphatase non-receptor type 1) resulted in: TNF reporter robust z-score 0.33.
Against PTPN1 (protein tyrosine phosphatase non-receptor type 1) the deposit lists TNF reporter robust z-score 0.99.
With knock-down of NFATC3 (nuclear factor of activated T cells 3), the record shows TNF reporter robust z-score -0.5.
NFATC3 (nuclear factor of activated T cells 3) scored TNF reporter robust z-score 0.75.
For NFATC3 (nuclear factor of activated T cells 3), the values are TNF reporter robust z-score 1.03.
For NFATC3 (nuclear factor of activated T cells 3), the values are TNF reporter robust z-score 1.31.
UPP1 (uridine phosphorylase 1) scored TNF reporter robust z-score 1.07.
UPP1 (uridine phosphorylase 1) gave TNF reporter robust z-score 2.14.
Knock-down of UPP1 (uridine phosphorylase 1) came out at: TNF reporter robust z-score 0.93.
UPP1 (uridine phosphorylase 1) scored TNF reporter robust z-score 2.27.
KLK8 (kallikrein related peptidase 8) showed TNF reporter robust z-score 0.92.
With knock-down of KLK8 (kallikrein related peptidase 8), the record shows TNF reporter robust z-score 0.49.
Knock-down of KLK8 (kallikrein related peptidase 8) gave: TNF reporter robust z-score -0.67.
Silencing of KLK8 (kallikrein related peptidase 8) came out at: TNF reporter robust z-score 0.4.
Silencing of NMBR (neuromedin B receptor) resulted in: TNF reporter robust z-score -0.36.
After knock-down of NMBR (neuromedin B receptor) the results were TNF reporter robust z-score 0.05.
NMBR (neuromedin B receptor) scored TNF reporter robust z-score -0.1.
NMBR (neuromedin B receptor) showed TNF reporter robust z-score -0.04.
WDR13 (WD repeat domain 13) scored TNF reporter robust z-score -0.49.
Depletion of WDR13 (WD repeat domain 13) came out at: TNF reporter robust z-score -0.19.
After knock-down of WDR13 (WD repeat domain 13), the record shows TNF reporter robust z-score -0.63.
For WDR13 (WD repeat domain 13), the values are TNF reporter robust z-score -0.34.
Depletion of GDAP1L1 came out at: TNF reporter robust z-score 1.14.
With knock-down of GDAP1L1, the screen gave TNF reporter robust z-score 1.51.
GDAP1L1 gave TNF reporter robust z-score 1.48.
GDAP1L1 gave TNF reporter robust z-score 1.79.
Knock-down of ZDHHC14 (zDHHC palmitoyltransferase 14) came out at: TNF reporter robust z-score 0.21.
ZDHHC14 (zDHHC palmitoyltransferase 14) scored TNF reporter robust z-score -0.26.
For ZDHHC14 (zDHHC palmitoyltransferase 14) the deposit lists TNF reporter robust z-score 0.33.
Knock-down of ZDHHC14 (zDHHC palmitoyltransferase 14) came out at: TNF reporter robust z-score 0.36.
For TCF19 (transcription factor 19), the values are TNF reporter robust z-score 5.08 (active).
Knock-down of TCF19 (transcription factor 19) came out at: TNF reporter robust z-score 5.01 (active).
Knock-down of TCF19 (transcription factor 19) gave: TNF reporter robust z-score 2.29.
Against TCF19 (transcription factor 19) the deposit lists TNF reporter robust z-score 2.44.
C8orf76 (chromosome 8 open reading frame 76) scored TNF reporter robust z-score 1.03.
Depletion of C8orf76 (chromosome 8 open reading frame 76) resulted in: TNF reporter robust z-score 2.05.
With knock-down of C8orf76 (chromosome 8 open reading frame 76), the screen gave TNF reporter robust z-score 1.69.
C8orf76 (chromosome 8 open reading frame 76) showed TNF reporter robust z-score 2.57.
Depletion of TAOK3 (TAO kinase 3) gave: TNF reporter robust z-score -1.35.
With knock-down of TAOK3 (TAO kinase 3), the screen gave TNF reporter robust z-score -1.05.
Silencing of TAOK3 (TAO kinase 3) resulted in: TNF reporter robust z-score -1.64 (active).
TAOK3 (TAO kinase 3) showed TNF reporter robust z-score -0.37.
